Test results: patent publication US5714363A, “Deacetoxycephalosporin C hydroxylase” (priority 1992, dated 1998)
At least one structure is not confirmed: it was looked up by name or label, or the drawing left a doubt.

Molecular target: T1, DAOC hydroxylase (Streptomyces clavuligerus, UniProt P42220)
T1 sequence (P42220 1-318): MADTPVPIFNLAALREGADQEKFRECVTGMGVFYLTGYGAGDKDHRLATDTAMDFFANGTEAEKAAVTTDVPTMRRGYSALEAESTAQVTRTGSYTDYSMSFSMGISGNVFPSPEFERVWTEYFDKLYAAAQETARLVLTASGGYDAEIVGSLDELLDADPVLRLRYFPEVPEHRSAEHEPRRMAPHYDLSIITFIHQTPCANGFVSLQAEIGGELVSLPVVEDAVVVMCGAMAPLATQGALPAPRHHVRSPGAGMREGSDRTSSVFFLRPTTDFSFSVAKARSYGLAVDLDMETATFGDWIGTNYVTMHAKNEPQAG
Assay: DAOC hydroxylase activity assay (DAC formation from DAOC, HPLC at 260 nm)
Assay type: biochemical
Design: The highly purified native enzyme (92% purity) has a molecular weight of 35,000 dalton; endogenous in cells; host or cells: Streptomyces clavuligerus cells (native producer; NRRL 18491 is named as preferred strain), enzyme purified from cell-free extract
Conditions: with Fe2+, α-ketoglutarate and O2
Description: The activity of the DAOC hydroxylase is determined throughout the process by the following assay method. The hydroxylase activity was determined by monitoring DAC formation from DAOC at 260 nm with HPLC as described by Dotzlaf, J. E., and Yeh, W.-K. (1987) J. Bacteriol., 169, 1611-1618. […] The enzymatic reaction is initiated by adding the DAOC and the reaction is conducted for 20 minutes at 29° C. DAC formation is linear with reaction time for up to 40 minutes. One unit of enzyme activity is defined as the amount of hydroxylase required to cause formation of one μmol of DAC per minute from DAOC under the above-described assay conditions.
The specific activity of the hydroxylase is defined as units per milligram of protein.

O=C1O[C@H]([C@@H](O)CO)C(O)=C1O [ascorbate]
stimulation of catalytic activity: stimulated
